± gives the standard deviation of the averaged measurements. The entries are a selection whose mix differs from that of the whole data set.
Compound: Nc1ncnc2c1ncn2[C@@H]1O[C@H](COP(=O)(O)OP(=O)(O)OP(=O)(O)O)[C@@H](O)[C@H]1O [adenosine triphosphate]
Assay: NP40-soluble protein abundance relative to vehicle (solubility fold change) (ratio); higher = more soluble protein in presence of ATP
How it was run: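 Across three independent experiments, values are fold changes against the detergent-processed vehicle for each replicate, based on vsn-normalised intensities. The samples were Jurkat crude lysate treated with eight concentrations (0.1 to 10 mM) for 10 min at room temperature and then 3 min at 37 °C. Lysate was solubilised with 0.8% NP40 and benzonase, ultracentrifuged, and the supernatant analysed by TMT-labelled LC-MS/MS.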

Sequences of proteins named here, by UniProt entry; tags and fusion partners are left off. A change or cut given only in a name is not applied to a line headed by its entry.
UniProt Q9P0J1: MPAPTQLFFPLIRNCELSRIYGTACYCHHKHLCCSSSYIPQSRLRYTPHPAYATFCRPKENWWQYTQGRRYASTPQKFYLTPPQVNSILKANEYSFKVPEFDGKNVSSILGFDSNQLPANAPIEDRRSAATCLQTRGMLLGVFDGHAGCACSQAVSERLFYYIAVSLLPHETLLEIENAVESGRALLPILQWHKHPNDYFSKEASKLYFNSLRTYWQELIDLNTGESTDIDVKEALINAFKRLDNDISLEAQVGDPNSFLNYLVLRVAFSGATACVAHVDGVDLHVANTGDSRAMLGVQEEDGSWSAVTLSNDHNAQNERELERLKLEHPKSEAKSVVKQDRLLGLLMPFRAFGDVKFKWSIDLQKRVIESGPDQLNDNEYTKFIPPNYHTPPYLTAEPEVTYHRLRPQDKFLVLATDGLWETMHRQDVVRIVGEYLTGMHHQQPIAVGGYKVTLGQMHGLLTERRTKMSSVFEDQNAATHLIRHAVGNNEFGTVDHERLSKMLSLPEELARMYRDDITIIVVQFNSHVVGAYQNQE
UniProt Q9NV70: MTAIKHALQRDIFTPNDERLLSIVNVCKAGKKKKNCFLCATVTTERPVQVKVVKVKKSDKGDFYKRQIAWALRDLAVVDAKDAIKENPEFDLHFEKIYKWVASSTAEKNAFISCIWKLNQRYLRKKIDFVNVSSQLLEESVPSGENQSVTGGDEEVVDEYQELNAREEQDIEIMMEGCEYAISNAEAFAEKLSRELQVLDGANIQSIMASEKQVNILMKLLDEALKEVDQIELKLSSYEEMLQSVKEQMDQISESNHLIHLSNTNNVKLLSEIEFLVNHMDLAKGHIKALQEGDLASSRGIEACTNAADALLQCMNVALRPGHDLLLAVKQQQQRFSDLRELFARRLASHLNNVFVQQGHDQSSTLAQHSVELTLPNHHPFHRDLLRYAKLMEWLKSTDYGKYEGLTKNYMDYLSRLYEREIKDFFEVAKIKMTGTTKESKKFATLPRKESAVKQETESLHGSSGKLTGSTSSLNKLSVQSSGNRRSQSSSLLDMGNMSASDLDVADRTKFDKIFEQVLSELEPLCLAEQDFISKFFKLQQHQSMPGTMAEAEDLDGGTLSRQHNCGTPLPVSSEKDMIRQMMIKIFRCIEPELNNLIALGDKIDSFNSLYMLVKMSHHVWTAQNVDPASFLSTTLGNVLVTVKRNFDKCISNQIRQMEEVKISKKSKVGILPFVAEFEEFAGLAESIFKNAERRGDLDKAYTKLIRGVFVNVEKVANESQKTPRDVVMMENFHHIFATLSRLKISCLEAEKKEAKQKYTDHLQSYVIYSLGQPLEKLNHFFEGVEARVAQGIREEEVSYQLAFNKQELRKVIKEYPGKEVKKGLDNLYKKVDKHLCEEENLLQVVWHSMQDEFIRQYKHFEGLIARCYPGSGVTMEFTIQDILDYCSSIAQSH
UniProt Q9NUQ3: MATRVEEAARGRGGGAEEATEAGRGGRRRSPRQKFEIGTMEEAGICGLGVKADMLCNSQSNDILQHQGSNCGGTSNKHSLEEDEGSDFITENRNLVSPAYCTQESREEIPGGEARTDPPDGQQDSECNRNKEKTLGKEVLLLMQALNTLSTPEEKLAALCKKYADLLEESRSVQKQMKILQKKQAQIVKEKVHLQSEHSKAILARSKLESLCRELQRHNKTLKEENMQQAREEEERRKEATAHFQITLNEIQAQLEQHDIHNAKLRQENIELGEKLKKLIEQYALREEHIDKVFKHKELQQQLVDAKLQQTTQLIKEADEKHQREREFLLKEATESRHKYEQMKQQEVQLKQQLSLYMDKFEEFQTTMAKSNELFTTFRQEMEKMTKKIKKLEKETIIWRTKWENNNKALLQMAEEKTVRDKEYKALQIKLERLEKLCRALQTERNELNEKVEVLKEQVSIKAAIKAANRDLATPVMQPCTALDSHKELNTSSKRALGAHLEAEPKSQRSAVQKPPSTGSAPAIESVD
UniProt Q9NVI1: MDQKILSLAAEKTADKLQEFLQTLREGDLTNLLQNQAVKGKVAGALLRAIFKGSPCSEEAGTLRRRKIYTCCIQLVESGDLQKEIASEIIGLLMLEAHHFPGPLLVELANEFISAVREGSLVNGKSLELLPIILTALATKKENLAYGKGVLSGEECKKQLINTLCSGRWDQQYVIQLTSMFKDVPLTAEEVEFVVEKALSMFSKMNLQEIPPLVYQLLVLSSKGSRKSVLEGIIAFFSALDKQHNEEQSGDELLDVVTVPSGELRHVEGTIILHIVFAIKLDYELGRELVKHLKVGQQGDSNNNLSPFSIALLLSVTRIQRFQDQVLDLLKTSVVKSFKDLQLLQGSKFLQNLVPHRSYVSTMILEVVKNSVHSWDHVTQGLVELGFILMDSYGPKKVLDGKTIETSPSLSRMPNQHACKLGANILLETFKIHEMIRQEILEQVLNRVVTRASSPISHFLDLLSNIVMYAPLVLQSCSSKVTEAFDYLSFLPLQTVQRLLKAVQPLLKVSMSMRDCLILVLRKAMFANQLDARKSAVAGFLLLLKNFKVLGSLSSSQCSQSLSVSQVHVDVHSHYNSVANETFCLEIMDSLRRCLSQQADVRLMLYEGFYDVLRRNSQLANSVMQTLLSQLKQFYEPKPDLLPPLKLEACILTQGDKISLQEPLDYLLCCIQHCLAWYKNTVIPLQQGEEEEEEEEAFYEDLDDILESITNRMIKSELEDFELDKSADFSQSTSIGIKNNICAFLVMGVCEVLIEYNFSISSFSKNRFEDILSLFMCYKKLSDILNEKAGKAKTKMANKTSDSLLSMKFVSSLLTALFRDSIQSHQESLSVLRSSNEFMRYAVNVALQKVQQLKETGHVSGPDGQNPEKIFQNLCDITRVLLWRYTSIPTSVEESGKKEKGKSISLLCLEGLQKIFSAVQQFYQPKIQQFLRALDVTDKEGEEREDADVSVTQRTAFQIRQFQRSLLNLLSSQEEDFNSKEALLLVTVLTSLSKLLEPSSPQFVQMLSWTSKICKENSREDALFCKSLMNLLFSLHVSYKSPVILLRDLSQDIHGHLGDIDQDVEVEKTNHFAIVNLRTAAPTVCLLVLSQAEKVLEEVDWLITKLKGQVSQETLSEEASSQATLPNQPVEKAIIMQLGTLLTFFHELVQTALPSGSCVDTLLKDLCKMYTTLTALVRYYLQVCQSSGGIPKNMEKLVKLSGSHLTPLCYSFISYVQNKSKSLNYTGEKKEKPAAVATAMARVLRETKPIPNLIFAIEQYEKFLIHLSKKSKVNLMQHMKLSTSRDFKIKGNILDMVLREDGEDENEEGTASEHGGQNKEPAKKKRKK
UniProt Q9NVE7: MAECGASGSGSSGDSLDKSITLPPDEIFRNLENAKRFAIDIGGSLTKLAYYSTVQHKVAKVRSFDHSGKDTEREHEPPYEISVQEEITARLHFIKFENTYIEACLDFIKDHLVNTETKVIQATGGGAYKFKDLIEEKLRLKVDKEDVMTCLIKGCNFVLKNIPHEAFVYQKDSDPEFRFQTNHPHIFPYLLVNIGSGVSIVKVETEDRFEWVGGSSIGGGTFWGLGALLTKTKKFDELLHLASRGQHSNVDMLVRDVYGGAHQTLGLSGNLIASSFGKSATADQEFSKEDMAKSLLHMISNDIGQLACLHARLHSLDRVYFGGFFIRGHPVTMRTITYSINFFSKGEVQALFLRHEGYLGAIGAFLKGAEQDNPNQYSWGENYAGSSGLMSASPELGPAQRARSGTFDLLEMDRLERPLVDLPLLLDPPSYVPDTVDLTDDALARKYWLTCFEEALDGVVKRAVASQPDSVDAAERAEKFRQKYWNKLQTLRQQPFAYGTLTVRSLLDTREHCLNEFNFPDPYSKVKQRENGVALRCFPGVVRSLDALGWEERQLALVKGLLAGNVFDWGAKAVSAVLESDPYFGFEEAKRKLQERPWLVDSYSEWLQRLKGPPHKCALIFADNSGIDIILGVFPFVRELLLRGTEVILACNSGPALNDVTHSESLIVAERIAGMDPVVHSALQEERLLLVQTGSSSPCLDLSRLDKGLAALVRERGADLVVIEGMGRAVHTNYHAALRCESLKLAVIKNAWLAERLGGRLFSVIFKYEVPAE
UniProt Q9NPA3, whole entry: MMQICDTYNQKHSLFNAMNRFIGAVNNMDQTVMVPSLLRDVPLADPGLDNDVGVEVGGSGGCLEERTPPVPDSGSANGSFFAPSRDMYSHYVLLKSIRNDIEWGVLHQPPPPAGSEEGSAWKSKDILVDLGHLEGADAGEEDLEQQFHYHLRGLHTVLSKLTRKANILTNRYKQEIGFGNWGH
UniProt Q9P1Z2: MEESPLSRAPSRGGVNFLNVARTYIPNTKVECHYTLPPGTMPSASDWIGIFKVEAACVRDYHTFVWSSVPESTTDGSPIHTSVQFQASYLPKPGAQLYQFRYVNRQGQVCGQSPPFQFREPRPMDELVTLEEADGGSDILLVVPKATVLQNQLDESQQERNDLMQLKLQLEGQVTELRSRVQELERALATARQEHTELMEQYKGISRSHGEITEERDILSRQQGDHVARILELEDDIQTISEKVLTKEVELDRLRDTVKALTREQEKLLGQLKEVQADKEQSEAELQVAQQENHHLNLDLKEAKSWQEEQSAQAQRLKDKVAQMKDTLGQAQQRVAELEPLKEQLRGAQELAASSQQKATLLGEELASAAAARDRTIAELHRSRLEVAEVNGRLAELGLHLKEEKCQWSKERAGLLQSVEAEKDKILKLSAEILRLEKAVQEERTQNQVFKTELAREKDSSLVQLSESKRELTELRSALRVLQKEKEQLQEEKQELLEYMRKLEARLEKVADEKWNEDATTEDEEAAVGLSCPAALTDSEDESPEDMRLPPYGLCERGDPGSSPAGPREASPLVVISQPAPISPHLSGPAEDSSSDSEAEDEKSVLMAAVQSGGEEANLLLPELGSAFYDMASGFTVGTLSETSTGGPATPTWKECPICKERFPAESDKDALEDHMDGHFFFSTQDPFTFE
UniProt Q9NP97, whole entry: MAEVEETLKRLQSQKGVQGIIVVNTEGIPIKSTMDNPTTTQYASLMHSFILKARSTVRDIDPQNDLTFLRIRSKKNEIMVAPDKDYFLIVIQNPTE
UniProt Q9NVM6: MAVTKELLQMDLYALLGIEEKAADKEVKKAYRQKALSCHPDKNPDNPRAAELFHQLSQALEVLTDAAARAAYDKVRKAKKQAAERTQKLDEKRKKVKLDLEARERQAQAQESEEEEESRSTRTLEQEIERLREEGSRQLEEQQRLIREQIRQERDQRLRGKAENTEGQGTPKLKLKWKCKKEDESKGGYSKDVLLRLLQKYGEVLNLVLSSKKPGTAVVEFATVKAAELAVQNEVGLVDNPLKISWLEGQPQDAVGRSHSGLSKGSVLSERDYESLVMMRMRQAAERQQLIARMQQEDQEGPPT
UniProt Q9NUI1: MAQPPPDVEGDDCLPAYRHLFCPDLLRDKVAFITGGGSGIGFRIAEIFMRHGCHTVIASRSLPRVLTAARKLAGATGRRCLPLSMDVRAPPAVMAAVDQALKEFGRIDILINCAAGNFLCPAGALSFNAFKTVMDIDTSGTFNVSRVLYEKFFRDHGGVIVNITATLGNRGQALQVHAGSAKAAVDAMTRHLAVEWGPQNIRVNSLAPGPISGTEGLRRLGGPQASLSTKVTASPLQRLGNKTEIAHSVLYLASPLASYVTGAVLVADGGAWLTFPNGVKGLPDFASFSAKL
UniProt Q9NWQ8: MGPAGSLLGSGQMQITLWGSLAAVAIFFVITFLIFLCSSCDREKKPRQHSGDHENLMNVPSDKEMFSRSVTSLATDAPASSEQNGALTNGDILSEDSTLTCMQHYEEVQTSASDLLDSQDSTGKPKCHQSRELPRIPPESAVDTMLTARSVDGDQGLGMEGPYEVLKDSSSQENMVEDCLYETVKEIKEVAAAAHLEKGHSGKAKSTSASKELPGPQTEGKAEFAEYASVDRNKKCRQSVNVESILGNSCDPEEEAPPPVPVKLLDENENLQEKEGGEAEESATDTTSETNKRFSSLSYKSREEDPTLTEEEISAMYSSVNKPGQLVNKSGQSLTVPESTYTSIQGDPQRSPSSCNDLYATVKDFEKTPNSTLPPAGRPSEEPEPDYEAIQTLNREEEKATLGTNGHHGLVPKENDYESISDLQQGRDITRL
UniProt Q9NQE9: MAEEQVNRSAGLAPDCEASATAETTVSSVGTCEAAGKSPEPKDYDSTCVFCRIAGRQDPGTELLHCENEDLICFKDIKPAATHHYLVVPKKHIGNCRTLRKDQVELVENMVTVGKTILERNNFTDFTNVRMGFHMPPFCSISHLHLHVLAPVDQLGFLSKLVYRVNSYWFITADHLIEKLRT
UniProt Q9NZC3: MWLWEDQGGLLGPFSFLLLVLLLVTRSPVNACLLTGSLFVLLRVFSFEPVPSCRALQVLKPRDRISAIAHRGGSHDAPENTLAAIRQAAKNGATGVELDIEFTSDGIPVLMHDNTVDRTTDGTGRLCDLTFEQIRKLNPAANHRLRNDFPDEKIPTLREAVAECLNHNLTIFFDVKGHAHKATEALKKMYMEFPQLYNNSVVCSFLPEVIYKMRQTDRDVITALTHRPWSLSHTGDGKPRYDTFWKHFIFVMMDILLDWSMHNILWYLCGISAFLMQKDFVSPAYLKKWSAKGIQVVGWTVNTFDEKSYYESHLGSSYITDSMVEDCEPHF

Row | Target | NP40-soluble protein abundance (concentration: 1mM) | NP40-soluble protein abundance (concentration: 2mM) | NP40-soluble protein abundance (concentration: 4mM) | NP40-soluble protein abundance (concentration: 6mM) | NP40-soluble protein abundance (concentration: 8mM) | NP40-soluble protein abundance (concentration: 10mM)
1 | POLE3 (UniProt Q9NRF9) | 0.942 ± 0.14 | 0.914 ± 0.074 | 0.991 ± 0.13 | 0.961 ± 0.16 | 0.882 ± 0.052 | 0.822 ± 0.17
2 | GGA3 (UniProt Q9NZ52) | 0.96 ± 0.051 | 0.987 ± 0.044 | 0.934 ± 0.018 | 0.981 ± 0.041 | 0.943 ± 0.013 | 0.917 ± 0.037
3 | UniProt Q9P0J1 and related entries | 0.969 ± 0.029 | 0.989 ± 0.058 | 0.949 ± 0.025 | 0.941 ± 0.077 | 0.953 ± 0.059 | 0.991 ± 0.059
4 | TRNAU1AP (UniProt Q9NX07) | 0.968 ± 0.059 | 0.982 ± 0.033 | 0.951 ± 0.031 | 0.971 ± 0.034 | 0.918 ± 0.03 | 0.959 ± 0.045
5 | UniProt Q9NXF7 | 1 ± 0.032 | 0.995 ± 0.034 | 0.965 ± 0.031 | 0.972 ± 0.041 | 0.954 ± 0.035 | 0.923 ± 0.074
6 | UniProt Q9NV70 and related entries | 1.08 ± 0.095 | 1.03 ± 0.04 | 1.03 ± 0.041 | 1.02 ± 0.048 | 1.05 ± 0.051 | 1.02 ± 0.052
7 | KLC4 (UniProt Q9NSK0) | 0.868 ± 0.065 | 0.877 ± 0.042 | 0.861 ± 0.039 | 0.885 ± 0.026 | 0.837 ± 0.035 | 0.863 ± 0.041
8 | UniProt Q9NUP1 | 0.933 ± 0.12 | 0.89 ± 0.062 | 0.906 ± 0.077 | 0.892 ± 0.12 | 0.949 ± 0.02 | 0.859 ± 0.086
9 | PAK1IP1 (UniProt Q9NWT1) | 1.23 ± 0.18 | 1.17 ± 0.072 | 1.2 ± 0.058 | 1.31 ± 0.045 | 1.37 ± 0.053 | 1.58 ± 0.071
10 | UniProt Q9NUQ3 | 0.964 ± 0.037 | 0.9579 ± 0.0068 | 0.923 ± 0.033 | 0.987 ± 0.01 | 0.933 ± 0.013 | 0.93 ± 0.034
11 | ZNHIT6 (UniProt Q9NWK9) | 1.03 ± 0.066 | 1.01 ± 0.09 | 1 ± 0.038 | 1.02 ± 0.13 | 1.02 ± 0.12 | 1.07 ± 0.11
12 | PDLIM7 (UniProt Q9NR12) | 1 ± 0.029 | 0.991 ± 0.012 | 1.01 ± 0.015 | 0.99 ± 0.025 | 0.997 ± 0.027 | 0.996 ± 0.012
13 | NLE1 (UniProt Q9NVX2) | 1 ± 0.086 | 1.01 ± 0.1 | 1.03 ± 0.094 | 0.962 ± 0.095 | 0.964 ± 0.055 | 1.01 ± 0.068
14 | FANCI (UniProt Q9NVI1) | 0.993 ± 0.098 | 0.977 ± 0.067 | 0.958 ± 0.051 | 0.939 ± 0.078 | 0.969 ± 0.037 | 0.979 ± 0.036
15 | POGK (UniProt Q9P215) | 0.96 ± 0.16 | 0.981 ± 0.065 | 1.02 ± 0.0078 | 0.948 ± 0.054 | 0.947 ± 0.17 | 1.02 ± 0.12
16 | PANK4 (UniProt Q9NVE7) | 1.02 ± 0.12 | 0.991 ± 0.064 | 1.02 ± 0.1 | 0.928 ± 0.12 | 1.03 ± 0.1 | 0.995 ± 0.034
17 | UniProt Q9NRV9 and related entries | 0.984 ± 0.14 | 0.956 ± 0.12 | 0.971 ± 0.11 | 0.969 ± 0.12 | 0.97 ± 0.13 | 0.948 ± 0.14
18 | ABCF3 (UniProt Q9NUQ8) | 1.08 ± 0.029 | 1.08 ± 0.026 | 1.06 ± 0.035 | 1.01 ± 0.075 | 1.06 ± 0.018 | 1.06 ± 0.059

Row | Target | NP40-soluble protein abundance (concentration: 1mM) | NP40-soluble protein abundance (concentration: 2mM) | NP40-soluble protein abundance (concentration: 4mM) | NP40-soluble protein abundance (concentration: 6mM) | NP40-soluble protein abundance (concentration: 8mM) | NP40-soluble protein abundance (concentration: 10mM)
19 | UniProt Q9NPA3 | 1.08 ± 0.072 | 1 ± 0.06 | 1.02 ± 0.057 | 0.991 ± 0.1 | 0.992 ± 0.063 | 0.947 ± 0.091
20 | WDR70 (UniProt Q9NW82) | 0.99 ± 0.04 | 0.984 ± 0.019 | 0.97 ± 0.026 | 0.967 ± 0.032 | 0.968 ± 0.033 | 0.985 ± 0.013
21 | NIT2 (UniProt Q9NQR4) | 0.99 ± 0.031 | 0.974 ± 0.058 | 0.929 ± 0.04 | 0.994 ± 0.093 | 0.954 ± 0.057 | 0.955 ± 0.063
22 | CWC15 (UniProt Q9P013) | 0.943 ± 0.11 | 0.922 ± 0.07 | 0.92 ± 0.08 | 0.978 ± 0.092 | 1.04 ± 0.03 | 0.989 ± 0.1
23 | UniProt Q9P1Z2 and related entries | 0.943 ± 0.075 | 0.975 ± 0.033 | 0.959 ± 0.046 | 0.98 ± 0.034 | 0.938 ± 0.051 | 0.935 ± 0.039
24 | OXSM (UniProt Q9NWU1) | 1.06 ± 0.091 | 1.05 ± 0.058 | 1.05 ± 0.068 | 1.04 ± 0.092 | 1.05 ± 0.047 | 1.03 ± 0.016
25 | DYNLRB1 (UniProt Q9NP97) | 0.99 ± 0.01 | 0.981 ± 0.041 | 0.971 ± 0.022 | 0.97 ± 0.035 | 0.975 ± 0.061 | 0.928 ± 0.052
26 | DNAJC17 (UniProt Q9NVM6) | 0.957 ± 0.048 | 0.951 ± 0.015 | 1.02 ± 0.064 | 1.04 ± 0.026 | 1.07 ± 0.067 | 0.988 ± 0.071
27 | GPCPD1 (UniProt Q9NPB8) | 1.04 ± 0.068 | 1.01 ± 0.049 | 1.08 ± 0.063 | 1.08 ± 0.12 | 0.951 ± 0.042 | 0.982 ± 0.068
28 | UniProt Q9NUI1 and related entries | 0.987 ± 0.029 | 0.991 ± 0.036 | 1.029 ± 0.0083 | 0.988 ± 0.018 | 1.02 ± 0.019 | 1.05 ± 0.04
29 | TERF2IP (UniProt Q9NYB0) | 1.01 ± 0.061 | 1.03 ± 0.021 | 1.01 ± 0.015 | 1.07 ± 0.029 | 0.9913 ± 0.0076 | 0.979 ± 0.029
30 | PAG1 (UniProt Q9NWQ8) | 0.986 ± 0.17 | 0.939 ± 0.12 | 0.961 ± 0.11 | 1.04 ± 0.18 | 0.929 ± 0.085 | 0.929 ± 0.11
31 | UniProt Q9NX14 and related entries | 0.906 ± 0.096 | 0.894 ± 0.094 | 0.87 ± 0.022 | 0.888 ± 0.15 | 0.893 ± 0.022 | 0.826 ± 0.084
32 | AASDHPPT (UniProt Q9NRN7) | 0.993 ± 0.13 | 0.948 ± 0.081 | 0.925 ± 0.068 | 0.917 ± 0.17 | 0.964 ± 0.083 | 0.945 ± 0.084
33 | UniProt Q9NZ08-2 | 0.977 ± 0.047 | 0.998 ± 0.057 | 0.962 ± 0.025 | 0.936 ± 0.046 | 0.938 ± 0.029 | 0.963 ± 0.025
34 | HINT3 (UniProt Q9NQE9) | 0.97 ± 0.064 | 1 ± 0.073 | 0.982 ± 0.059 | 0.962 ± 0.061 | 1 ± 0.097 | 0.988 ± 0.095
35 | UniProt Q9NZC3 and related entries | 0.893 ± 0.035 | 0.942 ± 0.017 | 0.953 ± 0.029 | 0.926 ± 0.055 | 0.897 ± 0.018 | 0.909 ± 0.041

Given with tabs: part of the list above.
Row	Target	NP40-soluble protein abundance (concentration: 1mM)	NP40-soluble protein abundance (concentration: 2mM)	NP40-soluble protein abundance (concentration: 4mM)	NP40-soluble protein abundance (concentration: 6mM)	NP40-soluble protein abundance (concentration: 8mM)	NP40-soluble protein abundance (concentration: 10mM)
20	WDR70 (UniProt Q9NW82)	0.99 ± 0.04	0.984 ± 0.019	0.97 ± 0.026	0.967 ± 0.032	0.968 ± 0.033	0.985 ± 0.013
21	NIT2 (UniProt Q9NQR4)	0.99 ± 0.031	0.974 ± 0.058	0.929 ± 0.04	0.994 ± 0.093	0.954 ± 0.057	0.955 ± 0.063
24	OXSM (UniProt Q9NWU1)	1.06 ± 0.091	1.05 ± 0.058	1.05 ± 0.068	1.04 ± 0.092	1.05 ± 0.047	1.03 ± 0.016
25	DYNLRB1 (UniProt Q9NP97)	0.99 ± 0.01	0.981 ± 0.041	0.971 ± 0.022	0.97 ± 0.035	0.975 ± 0.061	0.928 ± 0.052
27	GPCPD1 (UniProt Q9NPB8)	1.04 ± 0.068	1.01 ± 0.049	1.08 ± 0.063	1.08 ± 0.12	0.951 ± 0.042	0.982 ± 0.068
28	UniProt Q9NUI1 and related entries	0.987 ± 0.029	0.991 ± 0.036	1.029 ± 0.0083	0.988 ± 0.018	1.02 ± 0.019	1.05 ± 0.04
31	UniProt Q9NX14 and related entries	0.906 ± 0.096	0.894 ± 0.094	0.87 ± 0.022	0.888 ± 0.15	0.893 ± 0.022	0.826 ± 0.084
32	AASDHPPT (UniProt Q9NRN7)	0.993 ± 0.13	0.948 ± 0.081	0.925 ± 0.068	0.917 ± 0.17	0.964 ± 0.083	0.945 ± 0.084
33	UniProt Q9NZ08-2	0.977 ± 0.047	0.998 ± 0.057	0.962 ± 0.025	0.936 ± 0.046	0.938 ± 0.029	0.963 ± 0.025
34	HINT3 (UniProt Q9NQE9)	0.97 ± 0.064	1 ± 0.073	0.982 ± 0.059	0.962 ± 0.061	1 ± 0.097	0.988 ± 0.095

Source: the supplement of paper PMC6411743
